According to PMC10183829, “Shuffled ATG8 interacting motifs form an ancestral bridge between UFMylation and autophagy” (The EMBO Journal, 2023):
No constants are given. Whether binding was seen depends on the method and setting. Some entries that bind do so weakly or less than the wild type.

Chains of the proteins cited; added tags and fusions are not shown. Residues count along the entry.
UniProt O95166, residues 3-116: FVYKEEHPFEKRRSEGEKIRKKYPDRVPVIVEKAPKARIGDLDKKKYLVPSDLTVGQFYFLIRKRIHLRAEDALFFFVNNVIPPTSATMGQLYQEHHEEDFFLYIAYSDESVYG

Target: T1, mCh-HsC53 (human) (UniProt Q96JB5)
T1 sequence: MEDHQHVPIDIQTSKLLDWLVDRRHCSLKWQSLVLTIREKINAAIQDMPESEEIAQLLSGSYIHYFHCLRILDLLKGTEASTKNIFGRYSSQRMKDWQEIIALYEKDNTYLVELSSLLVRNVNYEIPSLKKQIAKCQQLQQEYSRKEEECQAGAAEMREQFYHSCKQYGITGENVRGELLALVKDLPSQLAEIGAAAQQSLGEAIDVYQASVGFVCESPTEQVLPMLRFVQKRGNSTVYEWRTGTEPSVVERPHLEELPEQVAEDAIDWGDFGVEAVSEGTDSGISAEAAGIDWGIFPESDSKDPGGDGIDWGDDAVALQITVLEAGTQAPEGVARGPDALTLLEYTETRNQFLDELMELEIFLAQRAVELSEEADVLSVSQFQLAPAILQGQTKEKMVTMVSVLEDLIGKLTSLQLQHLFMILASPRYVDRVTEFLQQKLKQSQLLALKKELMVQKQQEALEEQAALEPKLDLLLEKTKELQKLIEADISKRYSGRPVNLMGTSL
Experiment: microscopy-based on-bead protein-protein interaction assay; both purified

- binding: binds
Substance: GABARAP (purified) (from UniProt O95166 3-116)
